Laboratory results: patent publication EP4772530A1 (Mainline Biosciences (Shanghai) Co., Ltd., priority 2023, dated 2025)
For part of these data: The same purity stands for every peptide and may come from a single statement. For part of these data: HELM strings list residues between dots; [ac] is acetyl, [am] amide, other brackets name non-standard units. *1 amine or outer side, *2 acyl side, *3 side chain or, on linkers, in order; H or OH if unused. Where a SMILES comes first, the peptide text is derived from it. Bridges are numbered along the chain shown (N, C = ends). Roman numbers before positions name the chains, in order. [ ]: non-standard residue; d: D form. The star is where a group is joined. X1 = O=C(O)[C@H]1O[C@@H](Oc2ccc(COC(=O)[*:2])cc2N[*:1])[C@H](O)[C@@H](O)[C@@H]1O; Dolaproine = CO[C@@H]([C@@H]1CCCN1)[C@@H](C)C(=O)O; X3 = O=C(CCCCCN1C(=O)CC([*:1])C1=O)NCCC(=O)[*:2]; Dil = CC[C@H](C)[C@H](NC)[C@@H](CC(=O)O)OC; X2 = C[C@@H](N*)[C@@H](O)c1ccccc1; NMeV = CN[C@H](C(=O)O)C(C)C; AEEA = NCCOCCOCC(=O)O

Tested on: not listed separately
Experiment: general procedure: Fmoc solid-phase peptide synthesis; Rink Amide-AM Resin, 0.2 mmol/g; DIC and HOBt
Details: conjugation step, HPLC and MS

Compound	final purity (method not given)
PEPTIDE1{[PEG6].C.[PEG6].R.R.L.F.C.Y.[dW].K.T.C.T.W.R.D.[am]}|CHEM1{[MC-Gly-Gly-Phe-Gly-NH-CH2-Dxd]}$PEPTIDE1,PEPTIDE1,8:R3-13:R3|PEPTIDE1,CHEM1,2:R3-1:R1$$$V2.0	greater than 90%
PEPTIDE1{[PEG6].C.[PEG6].R.R.L.F.C.Y.[dW].K.T.C.T.W.R.D.[am]}|CHEM1{[MC-Val-Cit-PABC-MMAE]}$PEPTIDE1,PEPTIDE1,8:R3-13:R3|PEPTIDE1,CHEM1,2:R3-1:R1$$$V2.0	greater than 90%
PEPTIDE1{[ac].C.[AEEA].[AEEA].[AEEA].R.R.L.F.C.F.[dW].K.T.C.T.W.R.D.[am]}|CHEM1{[MC-Val-Cit-PABC-MMAE]}$PEPTIDE1,PEPTIDE1,10:R3-15:R3|PEPTIDE1,CHEM1,2:R3-1:R1$$$V2.0	greater than 90%
PEPTIDE1{[ac].C.[PEG6].K.K.[PEG6].R.R.L.F.C.Y.[dW].K.T.C.T.W.R.D.[am]}|PEPTIDE2{[ac].C.[PEG6]}|PEPTIDE3{[ac].C.[PEG6]}|CHEM1{[MC-Gly-Gly-Phe-Gly-NH-CH2-Dxd]}|CHEM2{[MC-Gly-Gly-Phe-Gly-NH-CH2-Dxd]}|CHEM3{[MC-Gly-Gly-Phe-Gly-NH-CH2-Dxd]}$PEPTIDE1,PEPTIDE1,11:R3-16:R3|PEPTIDE1,PEPTIDE2,4:R3-3:R2|PEPTIDE1,PEPTIDE3,5:R3-3:R2|PEPTIDE1,CHEM1,2:R3-1:R1|PEPTIDE2,CHEM2,2:R3-1:R1|PEPTIDE3,CHEM3,2:R3-1:R1$$$V2.0	greater than 90%
PEPTIDE1{[ac].C.[PEG6].R.R.L.F.C.Y.[dW].K.T.C.T.W.R.D.[am]}|CHEM1{[MC-Gly-Gly-Phe-Gly-NH-CH2-Dxd]}$PEPTIDE1,PEPTIDE1,8:R3-13:R3|PEPTIDE1,CHEM1,2:R3-1:R1$$$V2.0	greater than 90%
PEPTIDE1{[ac].C.[PEG6].R.R.L.F.C.Y.[dW].K.T.C.T.W.R.D.[am]}|CHEM1{[MC-Val-Cit-PABC-MMAE]}$PEPTIDE1,PEPTIDE1,8:R3-13:R3|PEPTIDE1,CHEM1,2:R3-1:R1$$$V2.0	greater than 90%

Same assay, conditions: conjugation step, HPLC and MS, one disulfide bridge

Compound	final purity (method not given)
Ac-Cys(MC-Val-Cit-PABC-MMAE)-AEEA-Arg-Arg-Leu-Phe-[Cys-Tyr-D-Trp-Lys-Thr-Cys]-Thr-Trp-Arg-Asp-NH2	greater than 90%
Ac-Cys(MC-betaglucuronide-MMAE)-AEEA-AEEA-AEEA-Arg-Arg-Leu-Phe-[Cys-Tyr-D-Trp-Lys-Thr-Cys]-Thr-Trp-Arg-Asp-NH2	greater than 90%
Cys(MC-Val-Cit-PABC-MMAE)-AEEA-Arg-Arg-Leu-Phe-[Cys-Tyr-D-Trp-Lys-Thr-Cys]-Thr-Trp-Arg-Asp-NH2	greater than 90%
Cys(MC-Val-Cit-PABC-MMAE)-Glu-Glu-Glu-AEEA-Arg-Arg-Leu-Phe-[Cys-Tyr-D-Trp-Lys-Thr-Cys]-Thr-Trp-Arg-Asp-NH2	greater than 90%

Tested on: NCI-H69
Experiment: Cell killing in NCI-H69 by CGT (CellTiter-Glo)
Format: cell-based
Details: NCI-H69, 96 h; 4-parameter fit
Description: Approximately 5 µL of the PDC was added to the corresponding wells of the plate, and compared with DMSO (control, without the PDC of the present application), PTX, MMAE, and Dxd wells. The final concentration of DMSO in each well was 0.2%; • (5) The cells were incubated in a 5% CO2 incubator at 37°C for 96 h; • (6) The cell culture plate was equilibrated to room temperature, and 50 µL of CellTiter-Glo® Reagent was added to each well; • (7) The plate was placed on a shaker for 2 min to ensure complete cell lysis; • (8) After mixing, the plate was placed at room temperature to react for 10 min. The fluorescence value (in RLU) was read when the signal became stable. • c) Data analysis • (1) The inhibition (Inh %) relative to the DMSO control was calculated as follows: Inhibition (Inh%)= 100 -(RLU of compound - RLU of DMSO control)/ (RLU of DMSO control - RLU of blank)*100% • (2) The data were analyzed using Graphpad 5.0 software. A 4-parameter equation was fitted to generate a concentration-response curve to obtain the IC50. Table 3: Test Results of Cell Killing in NCI-H69

Compound	Hillslope (Curve Gradient/Slope)
CC[C@@]1(O)C(=O)OCc2c1cc1n(c2=O)Cc2c-1nc1cc(F)c(C)c3c1c2[C@@H](NC(=O)CO)CC3 [Dxd]	0.50
CC[C@H](C)[C@@H]([C@@H](CC(=O)N1CCC[C@H]1[C@H](OC)[C@@H](C)C(=O)N[C@H](C)[C@@H](O)c1ccccc1)OC)N(C)C(=O)[C@@H](NC(=O)[C@H](C(C)C)N(C)C(=O)OCc1ccc(NC(=O)[C@H](CCCNC(N)=O)NC(=O)[C@@H](NC(=O)CCCCCN2C(=O)CC(SC[C@H](NC(C)=O)C(=O)NCCOCCOCC(=O)N[C@@H](CCCNC(=N)N)C(=O)N[C@@H](CCCNC(=N)N)C(=O)N[C@@H](CC(C)C)C(=O)N[C@@H](Cc3ccccc3)C(=O)N[C@H]3CSSC[C@@H](C(=O)N[C@H](C(=O)N[C@@H](Cc4c[nH]c5ccccc45)C(=O)N[C@@H](CCCNC(=N)N)C(=O)N[C@@H](CC(=O)O)C(N)=O)[C@@H](C)O)NC(=O)[C@H]([C@@H](C)O)NC(=O)[C@H](CCCCN)NC(=O)[C@@H](Cc4c[nH]c5ccccc45)NC(=O)[C@H](Cc4ccc(O)cc4)NC3=O)C2=O)C(C)C)cc1)C(C)C (stereo partly drawn) [Example 1, Cys(MC-Val-Cit-PABC-MMAE)-AEEA-Arg-Arg-Leu-Phe-[Cys-Tyr-D-Trp-Lys-Thr-Cys]-Thr-Trp-Arg-Asp-NH2]	1.53
CC[C@H](C)[C@@H]([C@@H](CC(=O)N1CCC[C@H]1[C@H](OC)[C@@H](C)C(=O)N[C@H](C)[C@@H](O)c1ccccc1)OC)N(C)C(=O)[C@@H](NC(=O)[C@H](C(C)C)N(C)C(=O)OCc1ccc(O[C@@H]2O[C@H](C(=O)O)[C@@H](O)[C@H](O)[C@H]2O)c(NC(=O)CCNC(=O)CCCCCN2C(=O)CC(SC[C@H](NC(C)=O)C(=O)NCCOCCOCC(=O)NCCOCCOCC(=O)NCCOCCOCC(=O)N[C@@H](CCCNC(=N)N)C(=O)N[C@@H](CCCNC(=N)N)C(=O)N[C@@H](CC(C)C)C(=O)N[C@@H](Cc3ccccc3)C(=O)N[C@H]3CSSC[C@@H](C(=O)N[C@H](C(=O)N[C@@H](Cc4c[nH]c5ccccc45)C(=O)N[C@@H](CCCNC(=N)N)C(=O)N[C@@H](CC(=O)O)C(N)=O)[C@@H](C)O)NC(=O)[C@H]([C@@H](C)O)NC(=O)[C@H](CCCCN)NC(=O)[C@@H](Cc4c[nH]c5ccccc45)NC(=O)[C@H](Cc4ccc(O)cc4)NC3=O)C2=O)c1)C(C)C (stereo partly drawn) [Example 4, Ac-Cys(MC-betaglucuronide-MMAE)-AEEA-AEEA-AEEA-Arg-Arg-Leu-Phe-[Cys-Tyr-D-Trp-Lys-Thr-Cys]-Thr-Trp-Arg-Asp-NH2] (I: Ac-C[AEEA][AEEA][AEEA]RRLFCY[dW]KTCTWRD-NH2 / II: [X1][NMeV]V[Dil][Dolaproine]-X2; linker I:1-II:N via X3; disulfide I:9-I:14)	1.15
CCC(C)C(C(CC(=O)N1CCCC1C(OC)C(C)C(=O)NC(C)C(O)c1ccccc1)OC)N(C)C(=O)C(NC(=O)C(NC)C(C)C)C(C)C (stereo not drawn) [MMAE]	0.97
CC(=O)O[C@H]1C(=O)[C@@]2(C)[C@H]([C@H](OC(=O)c3ccccc3)[C@]3(O)C[C@H](OC(=O)[C@H](O)[C@@H](NC(=O)c4ccccc4)c4ccccc4)C(C)=C1C3(C)C)[C@]1(OC(C)=O)CO[C@@H]1C[C@@H]2O [PTX]	2.18
